Experimental data: publication PMC10933653

The chains behind the UniProt entries cited, without tags or fusion partners. Where a name states a change or a piece, a line headed by the entry shows the natural chain unless it says otherwise.
UniProt O00625: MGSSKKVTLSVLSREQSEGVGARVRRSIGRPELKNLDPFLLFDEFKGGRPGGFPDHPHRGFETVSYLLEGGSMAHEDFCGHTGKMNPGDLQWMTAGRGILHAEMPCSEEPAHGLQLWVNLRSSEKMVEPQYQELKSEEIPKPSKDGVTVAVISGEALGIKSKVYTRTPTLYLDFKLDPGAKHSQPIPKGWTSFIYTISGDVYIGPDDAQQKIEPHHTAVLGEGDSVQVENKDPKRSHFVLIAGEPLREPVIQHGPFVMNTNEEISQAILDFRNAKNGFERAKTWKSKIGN

How the values were obtained:
Test in all cases: EMSA
[1] = target: GST-PIR (pirin) (Homo sapiens) (UniProt O00625); conditions: 20 nM probe, increasing GST-PIR; EMSA on non-denaturing polyacrylamide gel, 20 nM 3' FAM probe, E. coli purified proteins; pH and temperature not stated (cited method); recombinant protein; residues 1-290; protein details: GST; label: 3' FAM
[2] = target: T1, GST-p50 (activated form of NFkB1) (UniProt P19838); conditions: 20 nM probe, 20 nM protein; EMSA on non-denaturing polyacrylamide gel, 20 nM 3' FAM probe, E. coli purified proteins; pH and temperature not stated (cited method); recombinant protein; protein details: GST; label: 3' FAM
T1 sequence (looked up, limits assumed): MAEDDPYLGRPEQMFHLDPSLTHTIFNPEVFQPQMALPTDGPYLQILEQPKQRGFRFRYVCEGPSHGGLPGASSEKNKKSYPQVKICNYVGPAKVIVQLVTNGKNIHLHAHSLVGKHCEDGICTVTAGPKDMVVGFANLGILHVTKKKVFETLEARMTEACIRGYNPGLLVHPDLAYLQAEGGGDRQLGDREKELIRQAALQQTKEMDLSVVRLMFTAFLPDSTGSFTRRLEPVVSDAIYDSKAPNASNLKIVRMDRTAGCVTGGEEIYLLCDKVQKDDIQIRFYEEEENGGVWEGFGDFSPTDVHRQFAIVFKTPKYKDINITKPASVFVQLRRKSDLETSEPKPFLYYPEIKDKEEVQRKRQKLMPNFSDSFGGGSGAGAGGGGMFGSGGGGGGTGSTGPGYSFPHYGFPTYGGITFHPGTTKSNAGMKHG

[3] = tested on: GST-p52 (activated form of NFkB2) + RELB; conditions: EMSA on non-denaturing polyacrylamide gel, 20 nM 3' FAM probe, E. coli purified proteins, pH and temperature not stated (cited method), recombinant protein, protein details: GST, label: 3' FAM
[4] = target: T2, GST-p52 (activated form of NFkB2) (Homo sapiens) (UniProt Q00653); conditions: EMSA on non-denaturing polyacrylamide gel, 20 nM 3' FAM probe, E. coli purified proteins, pH and temperature not stated (cited method), recombinant protein, protein details: GST, label: 3' FAM
T2 sequence (looked up, limits assumed): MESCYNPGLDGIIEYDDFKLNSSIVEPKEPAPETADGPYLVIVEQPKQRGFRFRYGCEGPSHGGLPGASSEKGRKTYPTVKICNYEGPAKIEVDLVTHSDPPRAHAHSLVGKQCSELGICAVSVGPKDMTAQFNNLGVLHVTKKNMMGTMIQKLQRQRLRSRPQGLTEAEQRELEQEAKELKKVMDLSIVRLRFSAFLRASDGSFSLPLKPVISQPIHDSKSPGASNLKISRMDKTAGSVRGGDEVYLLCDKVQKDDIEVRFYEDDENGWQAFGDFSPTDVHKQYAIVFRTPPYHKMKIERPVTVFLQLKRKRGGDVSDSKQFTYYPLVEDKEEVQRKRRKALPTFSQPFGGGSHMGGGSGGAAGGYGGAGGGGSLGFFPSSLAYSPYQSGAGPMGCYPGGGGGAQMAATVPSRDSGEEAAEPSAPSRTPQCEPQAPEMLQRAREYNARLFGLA

**Q.** Does “AACGTCTGTGAGCCTCTCATGTTGCAGCCA (double strand) [FAS promoter 3'-2a probe]” bind [1]?
**A.** no binding

**Q.** Does “AACGTCTGTGAGCCTCTCATGTTGCAGCCA (double strand) [FAS promoter 3'-2a probe]” bind [2]?
**A.** no binding

**Q.** Does “AACGTCTGTGAGCCTCTCATGTTGCAGCCA (double strand) [FAS promoter 3'-2a probe]” bind ([3]; 20 nM probe, without PIR)?
**A.** binds

**Q.** Does “AACGTCTGTGAGCCTCTCATGTTGCAGCCA (double strand) [FAS promoter 3'-2a probe]” bind ([3]; with PIR, PIR disrupts binding of p52-RELB)?
**A.** binds more weakly

**Q.** Does “AACGTCTGTGAGCCTCTCATGTTGCAGCCA (double strand) [FAS promoter 3'-2a probe]” bind ([4]; 20 nM probe, 20 nM protein)?
**A.** binds

**Q.** Does “AACGTCTGTGAGCCTCTCATGTTGCAGCCA (double strand) [FAS promoter 3'-2a probe]” bind ([4]; increasing GST-PIR, binding not influenced)?
**A.** binds

Construct, isoform or probe ends are uncertain for at least one entry. For part of these data: Negatives hold for the conditions tested. For part of these data: Where a protein sequence is shown, tags need not be part of it. For part of these data: The comparison behind a weaker result is the experiment's own reference, which may not be listed here. For part of these data: At least one verdict rests on a figure or table, not on a statement of the authors.
